According to patent US20090012150A1, “Stablized Pharmaceutical Composition Comprising an Amorphous Active Substance” (priority 2002, published 2009):

Conditions: 6 days at 80° C.; hemi calcium salt
Method: Nitrogen of 99% purity (vol/vol) purity was used as an inert gas. The samples were stored at 80° C. for 6 days, and then the assay of impurities was determined by High Performance Liquid Chromatography.
The oxygen content in the vials was determined by gas chromatography with a mass spectrometric detector (GC/MS).
The degradation products were determined by […] Agilent Technologies (Waldbronn, Germany) model HP 1100. Chromatograms were recorded by a UV detector at 250 nm. The column Chromolit Performance RP-18e 100×4.6 mm (Merck, Darmstadt, Germany) and the gradient of mobile phase A: 20 mM ammonium acetate pH 4.0, 5% (v/v) tetrahydrofuran and 25% (v/v) acetonitrile and the gradient of mobile phase B: 20 mM ammonium acetate pH 4.0, 5% (v/v) tetrahydrofuran and 70 (v/v) acetonitrile were used. The composition of the mobile phase was changed so that initially and to minute 2 there was 25% of mobile phase B (75% of mobile phase A), from minute 2 to minute 4.7 the composition of the mobile phase changed linearly to 100% mobile phase B and it remained such to the end of the analysis at minute 5.5. Flow rate of the mobile phase was 7 ml/min. […] The samples of atorvastatin calcium were dissolved in the solvent 200 mM Tris p H 7, 40% (v/v) acetonitrile of the concentration 0.5 mg/ml.

Row | Structure (SMILES) | Effect of storing in an inert atmosphere on stability
1 | CC(C)c1c(C(=O)Nc2ccccc2)c(-c2ccccc2)c(-c2ccc(F)cc2)n1CC[C@@H](O)C[C@@H](O)CC(=O)O.CC(C)c1c(C(=O)Nc2ccccc2)c(-c2ccccc2)c(-c2ccc(F)cc2)n1CC[C@@H](O)C[C@@H](O)CC(=O)O.CC(C)c1c(C(=O)Nc2ccccc2)c(-c2ccccc2)c(-c2ccc(F)cc2)n1CC[C@@H](O)C[C@@H](O)CC(=O)[O-].CC(C)c1c(C(=O)Nc2ccccc2)c(-c2ccccc2)c(-c2ccc(F)cc2)n1CC[C@@H](O)C[C@@H](O)CC(=O)[O-].[Ca+2] (relative stereo) [Amorphous atorvastatin calcium, (R—(R*, R*))-2-(4-fluorophenyl)-β,δ-dihydroxy-5-(1-methylethyl)-3-phenyl-4((phenylamino)carbonyl)-1H-pyrrole-1-heptanoic acid hemi calcium salt] | improves the stability
2 | CC(C)c1c(C(=O)Nc2ccccc2)c(-c2ccccc2)c(-c2ccc(F)cc2)n1CC[C@@H](O)C[C@@H](O)CC(=O)O.CC(C)c1c(C(=O)Nc2ccccc2)c(-c2ccccc2)c(-c2ccc(F)cc2)n1CC[C@@H](O)C[C@@H](O)CC(=O)O.CC(C)c1c(C(=O)Nc2ccccc2)c(-c2ccccc2)c(-c2ccc(F)cc2)n1CC[C@@H](O)C[C@@H](O)CC(=O)[O-].CC(C)c1c(C(=O)Nc2ccccc2)c(-c2ccccc2)c(-c2ccc(F)cc2)n1CC[C@@H](O)C[C@@H](O)CC(=O)[O-].[Ca+2] (relative stereo) [Crystalline atorvastatin calcium, (R—(R*, R*))-2-(4-fluorophenyl)-β,δ-dihydroxy-5-(1-methylethyl)-3-phenyl-4((phenylamino)carbonyl)-1H-pyrrole-1-heptanoic acid hemi calcium salt] | no influence on the stability
